This note sets out measurements from the supplement of paper PMC10849652.

Chains of the proteins cited; added tags and fusions are not shown. Lines headed by an entry give the natural chain unless they say otherwise; changes in a name come on top.
UniProt O43765: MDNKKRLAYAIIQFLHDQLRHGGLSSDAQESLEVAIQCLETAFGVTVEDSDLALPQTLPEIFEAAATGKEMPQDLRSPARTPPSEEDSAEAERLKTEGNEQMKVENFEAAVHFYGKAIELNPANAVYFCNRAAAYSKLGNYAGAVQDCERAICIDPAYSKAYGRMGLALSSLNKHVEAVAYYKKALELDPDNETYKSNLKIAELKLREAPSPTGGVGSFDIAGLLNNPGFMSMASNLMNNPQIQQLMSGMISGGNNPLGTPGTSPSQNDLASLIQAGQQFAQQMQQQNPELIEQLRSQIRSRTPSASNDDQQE
UniProt Q12872: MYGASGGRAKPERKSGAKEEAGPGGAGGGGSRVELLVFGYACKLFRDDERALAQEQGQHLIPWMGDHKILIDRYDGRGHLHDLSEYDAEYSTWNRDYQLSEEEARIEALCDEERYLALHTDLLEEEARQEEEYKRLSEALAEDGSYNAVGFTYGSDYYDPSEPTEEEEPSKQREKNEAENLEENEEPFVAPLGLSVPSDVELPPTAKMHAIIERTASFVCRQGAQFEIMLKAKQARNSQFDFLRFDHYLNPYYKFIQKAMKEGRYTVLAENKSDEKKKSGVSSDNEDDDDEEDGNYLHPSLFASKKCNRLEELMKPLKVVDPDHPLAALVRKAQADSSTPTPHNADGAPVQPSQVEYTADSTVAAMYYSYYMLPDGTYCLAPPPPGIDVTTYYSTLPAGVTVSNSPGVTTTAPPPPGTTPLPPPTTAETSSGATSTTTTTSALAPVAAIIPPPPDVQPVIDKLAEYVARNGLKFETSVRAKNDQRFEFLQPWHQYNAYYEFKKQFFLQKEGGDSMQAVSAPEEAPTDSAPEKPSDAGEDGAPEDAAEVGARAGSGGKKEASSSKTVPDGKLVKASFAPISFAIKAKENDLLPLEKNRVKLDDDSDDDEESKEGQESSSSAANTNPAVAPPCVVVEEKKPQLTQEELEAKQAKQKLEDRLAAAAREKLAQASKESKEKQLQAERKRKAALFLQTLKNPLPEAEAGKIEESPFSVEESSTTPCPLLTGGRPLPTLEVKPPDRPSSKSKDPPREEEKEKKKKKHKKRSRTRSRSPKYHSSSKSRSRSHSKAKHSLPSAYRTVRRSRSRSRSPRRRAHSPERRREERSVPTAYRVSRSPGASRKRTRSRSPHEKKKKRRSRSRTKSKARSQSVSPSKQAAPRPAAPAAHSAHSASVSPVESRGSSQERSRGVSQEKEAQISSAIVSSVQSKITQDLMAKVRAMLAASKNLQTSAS
UniProt Q8N6T7, whole entry, looked up: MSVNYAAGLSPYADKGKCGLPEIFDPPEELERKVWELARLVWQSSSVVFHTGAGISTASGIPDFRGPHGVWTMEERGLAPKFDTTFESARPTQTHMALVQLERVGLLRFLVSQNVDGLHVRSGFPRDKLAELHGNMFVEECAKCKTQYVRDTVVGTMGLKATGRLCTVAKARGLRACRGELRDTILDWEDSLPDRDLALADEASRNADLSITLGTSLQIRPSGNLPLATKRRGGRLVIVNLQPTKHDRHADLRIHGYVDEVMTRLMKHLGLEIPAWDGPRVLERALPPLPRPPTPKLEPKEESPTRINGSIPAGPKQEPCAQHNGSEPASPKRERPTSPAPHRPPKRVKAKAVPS
UniProt Q9UGK8: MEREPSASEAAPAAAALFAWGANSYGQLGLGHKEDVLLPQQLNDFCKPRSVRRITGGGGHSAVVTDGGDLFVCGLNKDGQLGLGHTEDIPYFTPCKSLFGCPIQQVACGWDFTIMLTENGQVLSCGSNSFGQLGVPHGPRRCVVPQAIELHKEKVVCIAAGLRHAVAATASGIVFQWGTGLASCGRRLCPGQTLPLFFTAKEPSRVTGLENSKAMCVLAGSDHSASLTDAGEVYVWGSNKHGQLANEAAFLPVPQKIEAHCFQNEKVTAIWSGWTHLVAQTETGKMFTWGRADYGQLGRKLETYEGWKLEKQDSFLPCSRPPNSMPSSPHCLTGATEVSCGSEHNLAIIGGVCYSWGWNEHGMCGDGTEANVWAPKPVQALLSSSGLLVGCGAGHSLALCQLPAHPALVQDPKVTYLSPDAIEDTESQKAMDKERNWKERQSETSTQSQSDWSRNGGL
UniProt Q15428: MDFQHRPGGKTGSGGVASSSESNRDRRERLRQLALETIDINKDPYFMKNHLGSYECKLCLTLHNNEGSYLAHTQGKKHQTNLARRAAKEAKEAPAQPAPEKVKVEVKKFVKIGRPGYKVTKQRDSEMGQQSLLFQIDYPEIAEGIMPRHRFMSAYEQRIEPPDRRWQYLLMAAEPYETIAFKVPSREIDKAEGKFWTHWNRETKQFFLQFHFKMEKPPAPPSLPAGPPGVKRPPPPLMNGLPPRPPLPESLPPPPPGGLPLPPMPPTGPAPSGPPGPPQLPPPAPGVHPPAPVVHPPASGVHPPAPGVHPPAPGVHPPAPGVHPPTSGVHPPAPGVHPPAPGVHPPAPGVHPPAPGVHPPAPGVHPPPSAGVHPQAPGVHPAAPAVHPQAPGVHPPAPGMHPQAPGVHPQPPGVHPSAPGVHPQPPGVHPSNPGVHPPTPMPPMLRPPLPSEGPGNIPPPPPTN
UniProt P34896: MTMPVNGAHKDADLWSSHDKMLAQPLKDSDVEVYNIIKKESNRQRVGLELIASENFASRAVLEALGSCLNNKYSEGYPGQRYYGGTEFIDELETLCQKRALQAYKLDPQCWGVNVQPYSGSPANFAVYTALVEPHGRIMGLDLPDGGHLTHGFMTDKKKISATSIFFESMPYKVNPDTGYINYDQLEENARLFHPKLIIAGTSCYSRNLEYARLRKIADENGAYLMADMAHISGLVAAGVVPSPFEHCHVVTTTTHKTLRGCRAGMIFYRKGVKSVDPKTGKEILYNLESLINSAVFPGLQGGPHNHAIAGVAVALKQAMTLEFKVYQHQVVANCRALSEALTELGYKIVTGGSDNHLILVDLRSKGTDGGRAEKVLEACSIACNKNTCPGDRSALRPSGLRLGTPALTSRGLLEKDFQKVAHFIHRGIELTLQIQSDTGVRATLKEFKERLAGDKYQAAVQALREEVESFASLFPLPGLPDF
UniProt Q9UHD8: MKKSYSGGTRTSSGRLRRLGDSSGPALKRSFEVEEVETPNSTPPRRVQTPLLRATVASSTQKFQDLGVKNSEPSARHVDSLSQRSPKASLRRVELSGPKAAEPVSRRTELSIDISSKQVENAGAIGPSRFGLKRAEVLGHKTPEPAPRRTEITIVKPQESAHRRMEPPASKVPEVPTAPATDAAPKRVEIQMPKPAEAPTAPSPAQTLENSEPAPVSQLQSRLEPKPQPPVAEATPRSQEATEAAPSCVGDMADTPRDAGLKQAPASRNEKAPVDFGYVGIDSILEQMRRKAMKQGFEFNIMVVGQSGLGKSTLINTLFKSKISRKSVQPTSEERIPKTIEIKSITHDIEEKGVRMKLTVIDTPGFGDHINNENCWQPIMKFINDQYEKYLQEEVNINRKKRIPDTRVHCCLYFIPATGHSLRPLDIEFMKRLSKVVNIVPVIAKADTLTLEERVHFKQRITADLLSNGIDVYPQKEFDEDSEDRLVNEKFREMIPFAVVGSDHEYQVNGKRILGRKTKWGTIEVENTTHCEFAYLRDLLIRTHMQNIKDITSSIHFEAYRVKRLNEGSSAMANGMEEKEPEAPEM
UniProt Q9Y3B4: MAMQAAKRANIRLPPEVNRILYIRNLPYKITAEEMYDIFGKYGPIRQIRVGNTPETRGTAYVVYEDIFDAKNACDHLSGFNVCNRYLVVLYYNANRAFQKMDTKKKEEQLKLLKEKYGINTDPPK
UniProt Q9UBV2: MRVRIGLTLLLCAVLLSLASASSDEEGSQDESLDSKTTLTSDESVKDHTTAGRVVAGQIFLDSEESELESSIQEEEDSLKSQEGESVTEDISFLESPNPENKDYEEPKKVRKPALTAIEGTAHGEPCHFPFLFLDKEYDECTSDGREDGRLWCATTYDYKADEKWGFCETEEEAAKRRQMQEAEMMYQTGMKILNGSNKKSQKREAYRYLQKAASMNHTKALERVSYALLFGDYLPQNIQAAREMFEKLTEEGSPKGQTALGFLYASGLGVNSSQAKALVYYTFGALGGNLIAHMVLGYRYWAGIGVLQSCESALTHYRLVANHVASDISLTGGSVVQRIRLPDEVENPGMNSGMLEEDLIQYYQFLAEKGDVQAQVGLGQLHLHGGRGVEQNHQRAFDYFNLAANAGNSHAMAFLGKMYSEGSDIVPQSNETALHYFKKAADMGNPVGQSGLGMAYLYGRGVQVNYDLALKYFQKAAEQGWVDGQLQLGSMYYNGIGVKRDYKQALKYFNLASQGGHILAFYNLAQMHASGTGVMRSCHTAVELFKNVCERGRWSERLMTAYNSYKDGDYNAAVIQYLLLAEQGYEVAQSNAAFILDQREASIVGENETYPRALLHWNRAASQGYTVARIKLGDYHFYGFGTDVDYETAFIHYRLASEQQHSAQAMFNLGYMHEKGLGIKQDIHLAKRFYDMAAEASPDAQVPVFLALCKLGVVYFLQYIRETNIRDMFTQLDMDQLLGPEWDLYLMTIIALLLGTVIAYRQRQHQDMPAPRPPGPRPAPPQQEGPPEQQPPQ
UniProt P05543: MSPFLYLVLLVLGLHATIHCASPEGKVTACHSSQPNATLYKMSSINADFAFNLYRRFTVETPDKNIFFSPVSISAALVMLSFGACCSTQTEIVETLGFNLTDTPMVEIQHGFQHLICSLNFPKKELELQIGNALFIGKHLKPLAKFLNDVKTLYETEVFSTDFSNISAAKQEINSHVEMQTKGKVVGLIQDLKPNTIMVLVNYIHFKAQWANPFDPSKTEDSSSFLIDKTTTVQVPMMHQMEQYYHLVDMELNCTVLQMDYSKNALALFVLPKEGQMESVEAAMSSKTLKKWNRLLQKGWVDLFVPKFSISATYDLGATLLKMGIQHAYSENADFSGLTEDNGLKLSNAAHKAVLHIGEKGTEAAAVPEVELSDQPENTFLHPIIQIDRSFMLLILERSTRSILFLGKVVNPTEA
UniProt Q14141: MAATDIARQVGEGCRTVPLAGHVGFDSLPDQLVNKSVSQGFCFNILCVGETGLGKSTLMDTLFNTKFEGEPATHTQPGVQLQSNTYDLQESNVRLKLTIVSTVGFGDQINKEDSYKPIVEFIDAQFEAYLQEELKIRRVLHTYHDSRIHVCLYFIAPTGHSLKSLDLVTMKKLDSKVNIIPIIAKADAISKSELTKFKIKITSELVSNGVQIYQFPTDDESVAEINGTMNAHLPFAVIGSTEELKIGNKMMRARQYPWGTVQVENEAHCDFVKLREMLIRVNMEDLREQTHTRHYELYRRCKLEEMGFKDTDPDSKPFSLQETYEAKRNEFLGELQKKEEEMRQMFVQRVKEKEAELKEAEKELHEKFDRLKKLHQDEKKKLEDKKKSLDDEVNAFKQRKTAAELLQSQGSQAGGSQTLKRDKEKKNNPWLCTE
UniProt Q8IZQ5, whole entry, looked up: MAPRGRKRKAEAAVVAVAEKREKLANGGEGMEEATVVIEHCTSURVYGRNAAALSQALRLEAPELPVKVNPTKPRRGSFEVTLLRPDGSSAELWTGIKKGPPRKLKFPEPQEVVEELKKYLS
UniProt Q9NXA8: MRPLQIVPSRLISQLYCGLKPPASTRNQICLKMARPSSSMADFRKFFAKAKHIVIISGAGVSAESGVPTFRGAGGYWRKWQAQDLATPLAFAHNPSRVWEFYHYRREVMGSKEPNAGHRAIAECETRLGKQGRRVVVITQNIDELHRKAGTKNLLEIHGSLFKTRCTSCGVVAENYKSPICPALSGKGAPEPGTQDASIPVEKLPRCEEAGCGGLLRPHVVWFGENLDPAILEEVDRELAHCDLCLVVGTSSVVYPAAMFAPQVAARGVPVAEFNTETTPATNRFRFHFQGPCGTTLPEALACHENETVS
UniProt O60613, whole entry, looked up: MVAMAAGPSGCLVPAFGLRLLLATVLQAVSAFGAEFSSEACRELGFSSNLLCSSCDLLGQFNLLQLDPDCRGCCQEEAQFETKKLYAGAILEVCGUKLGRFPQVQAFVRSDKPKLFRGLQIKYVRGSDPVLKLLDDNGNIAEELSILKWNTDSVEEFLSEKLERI
UniProt Q92599: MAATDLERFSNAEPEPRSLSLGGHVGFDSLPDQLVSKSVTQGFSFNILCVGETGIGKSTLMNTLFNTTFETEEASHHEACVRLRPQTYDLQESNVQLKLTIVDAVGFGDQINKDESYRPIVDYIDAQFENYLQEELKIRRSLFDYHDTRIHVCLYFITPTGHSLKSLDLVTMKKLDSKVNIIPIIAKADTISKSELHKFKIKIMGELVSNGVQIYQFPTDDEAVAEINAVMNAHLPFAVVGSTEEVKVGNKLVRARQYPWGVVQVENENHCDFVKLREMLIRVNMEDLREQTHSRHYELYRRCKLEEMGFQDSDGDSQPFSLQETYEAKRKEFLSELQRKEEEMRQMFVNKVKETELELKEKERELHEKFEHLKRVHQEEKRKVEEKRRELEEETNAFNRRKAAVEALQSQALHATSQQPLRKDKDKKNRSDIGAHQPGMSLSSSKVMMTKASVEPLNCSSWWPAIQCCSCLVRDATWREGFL
UniProt P60468, whole entry, looked up: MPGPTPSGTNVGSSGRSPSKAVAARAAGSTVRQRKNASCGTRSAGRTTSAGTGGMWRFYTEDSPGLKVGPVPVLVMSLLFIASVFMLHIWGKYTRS

This is one part of the list.

Compound in the assay: C1CN(CCC1(CC2=CC=C(C=C2)Cl)N)C3=NC=NC4=C3C=CN4
Kind of assay: log2 fold change, soluble protein after heating vs DMSO (PISA); higher = thermal stabilisation; K562 cells, 10 uM, 30 min; active = over 0.2 and 3.5 SD of the protein, either way, in both replicates (recomputed). A digest of the protocol: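 Soluble protein was quantified by TMTpro 16plex LC-MS/MS after channel sums were equalised. It was obtained as the supernatant after 21,000xg for 90 min from pooled aliquots of K562 cells (2×10^6 cells/mL, 10 μM compound, 30 min) heated for 3 min across 48°C-58°C and extracted in PBS with 0.5% NP-40 at 4°C. Thermal stability values are relative to control samples and come from duplicates. They are given as log2 fold changes.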
In the case of SF3A1 (UniProt Q15459), the log2 fold change is inactive: -0.052.
For SERPINI1 (UniProt Q99574), the log2 fold change was inactive: 0.084.
To SGTA (UniProt O43765) belongs inactive: -0.009; to SF3B4 (UniProt Q15427), inactive: -0.058; to SF3B1 (UniProt O75533), inactive: -0.058.
SFSWAP isoform 2 (UniProt Q12872): the log2 fold change is inactive: -0.004.
Then SENP6 (UniProt Q9GZR1), with inactive: 0.049; and SEMA4C (UniProt Q9C0C4), with inactive: 0.024.
Take SIRT6 (UniProt Q8N6T7): the log2 fold change was inactive: 0.041.
For the target SERGEF (UniProt Q9UGK8), the log2 fold change is inactive: 0.046.
To SERPINB8 (UniProt P50452) belongs inactive: 0.063; to SF3A2 (UniProt Q15428), inactive: -0.049; to SHMT1 (UniProt P34896), inactive: 0.068.
To SEPTIN9 (UniProt Q9UHD8) belongs inactive: 0.037; to SEPTIN5 (UniProt Q99719), inactive: 0.039; to SIDT2 isoform 2 (UniProt Q8NBJ9), inactive: 0.053.
To SH3BP5L (UniProt Q7L8J4) belongs inactive: -0.003.
As for SERPINH1 (UniProt P50454), the log2 fold change is inactive: 0.008.
To SF3B6 (UniProt Q9Y3B4) belongs inactive: -0.094; to SEL1L (UniProt Q9UBV2), inactive: 0.025; to SFXN4 (UniProt Q6P4A7), inactive: 0.071.
Consider SERPINA7 (UniProt P05543), for which the log2 fold change was inactive: 0.272.
To SEPTIN6 (UniProt Q14141) belongs inactive: 0.073; to SIRT1 (UniProt Q96EB6), inactive: 0.015; to SELENOH (UniProt Q8IZQ5), inactive: 0.032.
As for SGTB (UniProt Q96EQ0), the log2 fold change is inactive: -0.02.
With SERBP1 isoform 3 (UniProt Q8NC51), the log2 fold change was inactive: 0.376.
Then SIRT5 (UniProt Q9NXA8), with inactive: -0.022; and SELENOF (UniProt O60613), with inactive: 0.026; and SEPTIN8 (UniProt Q92599), with inactive: 0.03.
Then SEC61B (UniProt P60468), with inactive: -0.004; and SGF29 (UniProt Q96ES7), with inactive: 0.081.
